Consider six molecules from paper PMC10244377.

By UniProt entry, the sequences of proteins in these tests, tags left out.
UniProt P45591: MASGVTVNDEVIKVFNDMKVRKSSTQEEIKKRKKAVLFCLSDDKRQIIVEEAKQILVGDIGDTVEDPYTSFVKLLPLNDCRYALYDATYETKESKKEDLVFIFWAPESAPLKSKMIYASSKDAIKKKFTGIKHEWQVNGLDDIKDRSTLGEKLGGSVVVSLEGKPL
UniProt Q9UKV8: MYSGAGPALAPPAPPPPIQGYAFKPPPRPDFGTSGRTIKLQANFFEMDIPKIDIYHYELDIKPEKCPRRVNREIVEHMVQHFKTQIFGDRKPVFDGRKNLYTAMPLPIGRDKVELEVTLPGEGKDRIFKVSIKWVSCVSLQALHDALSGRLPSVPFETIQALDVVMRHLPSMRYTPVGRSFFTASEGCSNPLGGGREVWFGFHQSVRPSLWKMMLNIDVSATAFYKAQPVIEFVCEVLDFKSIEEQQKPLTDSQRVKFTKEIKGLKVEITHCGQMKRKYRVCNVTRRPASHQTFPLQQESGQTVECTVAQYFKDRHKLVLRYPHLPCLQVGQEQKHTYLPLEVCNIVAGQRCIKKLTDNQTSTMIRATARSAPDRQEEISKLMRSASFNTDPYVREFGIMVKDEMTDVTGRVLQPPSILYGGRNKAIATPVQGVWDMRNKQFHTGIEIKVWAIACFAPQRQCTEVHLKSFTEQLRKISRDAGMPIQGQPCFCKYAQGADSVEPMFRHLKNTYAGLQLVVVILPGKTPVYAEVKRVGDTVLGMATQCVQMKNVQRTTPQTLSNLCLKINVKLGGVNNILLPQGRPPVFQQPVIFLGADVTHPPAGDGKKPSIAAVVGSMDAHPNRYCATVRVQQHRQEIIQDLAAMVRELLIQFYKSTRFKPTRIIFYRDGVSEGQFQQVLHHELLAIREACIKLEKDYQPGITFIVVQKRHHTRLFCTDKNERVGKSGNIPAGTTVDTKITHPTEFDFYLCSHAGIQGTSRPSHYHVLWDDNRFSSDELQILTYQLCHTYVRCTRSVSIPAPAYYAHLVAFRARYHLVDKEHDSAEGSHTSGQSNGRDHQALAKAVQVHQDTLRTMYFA
UniProt P14873: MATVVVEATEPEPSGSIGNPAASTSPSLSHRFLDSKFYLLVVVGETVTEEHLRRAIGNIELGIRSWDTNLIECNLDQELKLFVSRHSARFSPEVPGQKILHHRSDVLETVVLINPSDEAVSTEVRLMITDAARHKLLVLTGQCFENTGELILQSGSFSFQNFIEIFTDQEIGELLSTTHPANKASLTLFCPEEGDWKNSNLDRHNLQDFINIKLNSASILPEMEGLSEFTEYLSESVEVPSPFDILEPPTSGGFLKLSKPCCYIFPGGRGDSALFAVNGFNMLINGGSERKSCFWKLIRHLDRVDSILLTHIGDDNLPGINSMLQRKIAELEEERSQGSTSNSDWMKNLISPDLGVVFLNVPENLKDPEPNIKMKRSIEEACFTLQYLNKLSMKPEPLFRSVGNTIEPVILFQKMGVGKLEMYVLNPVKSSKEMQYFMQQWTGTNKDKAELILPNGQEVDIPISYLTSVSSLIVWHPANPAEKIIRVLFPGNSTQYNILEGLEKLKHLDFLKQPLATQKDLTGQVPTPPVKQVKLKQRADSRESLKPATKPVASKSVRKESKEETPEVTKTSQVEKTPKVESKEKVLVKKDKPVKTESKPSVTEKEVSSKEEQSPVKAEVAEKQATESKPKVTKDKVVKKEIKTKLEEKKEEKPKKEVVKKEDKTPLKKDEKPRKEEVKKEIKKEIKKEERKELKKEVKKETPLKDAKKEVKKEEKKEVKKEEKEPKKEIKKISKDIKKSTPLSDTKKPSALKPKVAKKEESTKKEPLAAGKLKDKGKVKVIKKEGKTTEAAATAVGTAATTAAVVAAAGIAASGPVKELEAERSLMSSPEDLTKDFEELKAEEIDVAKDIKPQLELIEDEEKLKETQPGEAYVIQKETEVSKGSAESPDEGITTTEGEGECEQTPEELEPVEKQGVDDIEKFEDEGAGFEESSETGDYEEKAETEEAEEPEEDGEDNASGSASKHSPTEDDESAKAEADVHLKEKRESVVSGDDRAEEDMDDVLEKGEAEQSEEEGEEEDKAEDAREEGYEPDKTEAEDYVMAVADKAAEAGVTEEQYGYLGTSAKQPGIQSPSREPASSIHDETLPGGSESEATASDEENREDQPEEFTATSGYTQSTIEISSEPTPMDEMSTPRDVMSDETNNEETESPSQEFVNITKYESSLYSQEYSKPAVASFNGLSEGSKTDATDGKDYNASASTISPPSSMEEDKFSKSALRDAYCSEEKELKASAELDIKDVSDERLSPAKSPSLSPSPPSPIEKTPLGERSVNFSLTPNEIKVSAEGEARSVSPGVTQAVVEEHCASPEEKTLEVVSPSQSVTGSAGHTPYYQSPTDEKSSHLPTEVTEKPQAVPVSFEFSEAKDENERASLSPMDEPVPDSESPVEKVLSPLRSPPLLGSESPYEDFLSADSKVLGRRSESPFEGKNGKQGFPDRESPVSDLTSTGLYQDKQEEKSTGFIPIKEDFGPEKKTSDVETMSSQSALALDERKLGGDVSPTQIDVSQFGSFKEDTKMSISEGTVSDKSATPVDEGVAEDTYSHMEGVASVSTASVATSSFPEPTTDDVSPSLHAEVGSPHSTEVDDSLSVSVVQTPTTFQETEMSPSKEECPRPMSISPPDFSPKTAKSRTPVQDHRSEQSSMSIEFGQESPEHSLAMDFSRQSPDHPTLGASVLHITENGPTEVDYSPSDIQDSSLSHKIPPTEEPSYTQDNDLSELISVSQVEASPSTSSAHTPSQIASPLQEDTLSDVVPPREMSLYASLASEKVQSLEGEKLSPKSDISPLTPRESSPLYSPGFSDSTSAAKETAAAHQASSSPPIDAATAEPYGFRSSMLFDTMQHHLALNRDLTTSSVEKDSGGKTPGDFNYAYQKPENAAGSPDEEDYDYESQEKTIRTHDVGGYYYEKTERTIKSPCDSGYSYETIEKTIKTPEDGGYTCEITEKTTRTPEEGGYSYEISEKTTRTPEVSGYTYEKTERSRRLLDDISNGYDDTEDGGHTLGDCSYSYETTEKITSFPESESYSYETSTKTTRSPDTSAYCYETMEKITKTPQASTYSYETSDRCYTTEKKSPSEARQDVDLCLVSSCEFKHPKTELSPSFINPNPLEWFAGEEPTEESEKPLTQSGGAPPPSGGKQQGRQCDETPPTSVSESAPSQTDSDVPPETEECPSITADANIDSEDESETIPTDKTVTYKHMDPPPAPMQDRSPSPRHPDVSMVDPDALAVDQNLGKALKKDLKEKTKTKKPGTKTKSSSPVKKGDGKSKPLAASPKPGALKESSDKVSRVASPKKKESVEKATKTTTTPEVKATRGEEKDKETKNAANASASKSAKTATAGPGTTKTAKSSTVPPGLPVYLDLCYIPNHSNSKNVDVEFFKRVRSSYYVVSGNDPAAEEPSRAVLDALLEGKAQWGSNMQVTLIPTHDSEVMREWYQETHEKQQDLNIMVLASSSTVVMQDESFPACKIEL

These are yes or no findings as the source states them, for the method shown. Binding seen in cells or lysates may run through a third protein. These calls come from enrichment with a bait or labelling near it, and not all partners need be listed.

The target of assay [1] is T1, Lissencephaly-1 (LIS1), mouse, endogenous in mESCs (mouse (endogenous in mESCs)) (UniProt P63005).
T1 sequence: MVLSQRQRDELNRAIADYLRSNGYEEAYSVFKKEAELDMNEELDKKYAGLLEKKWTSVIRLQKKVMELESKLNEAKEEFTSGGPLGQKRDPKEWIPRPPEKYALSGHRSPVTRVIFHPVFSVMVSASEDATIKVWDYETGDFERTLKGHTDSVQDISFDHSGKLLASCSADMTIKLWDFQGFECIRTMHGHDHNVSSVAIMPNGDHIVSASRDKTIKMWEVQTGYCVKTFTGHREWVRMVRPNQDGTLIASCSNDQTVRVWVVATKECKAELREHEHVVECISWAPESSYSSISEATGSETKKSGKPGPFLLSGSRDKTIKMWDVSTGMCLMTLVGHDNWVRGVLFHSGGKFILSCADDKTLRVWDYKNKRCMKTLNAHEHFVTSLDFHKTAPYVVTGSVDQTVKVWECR
The assay is described as follows: affinity purification with mass spectrometry; anti-LIS1 IP from whole-cell lysates (cytoplasm and nuclear extracts) of AGO1-4 KO mESCs without doxycycline (no Argonaute proteins); compared with Dox.AGO2.

For assay [2], the target named is T1, Lissencephaly-1 (LIS1), mouse, endogenous in mESCs (mouse (endogenous in mESCs)). Briefly: affinity purification with mass spectrometry; anti-LIS1 IP or IgG from whole-cell lysates (cytoplasm and nuclear extracts) of AGO1-4 KO mESCs with doxycycline-induced human AGO2 (Dox.AGO2).
Assay [3] shares this target. Briefly: affinity purification with mass spectrometry; anti-LIS1 (338) IP on protein A/G beads from cytoplasmic and nuclear extracts of WT, F/- and LIS1-dsRED OE mESCs; IP buffer 50 mM Tris-HCl pH 7.5, 150 mM NaCl, 1% Triton X-100, 6 h at 4 °C; LC-MS/MS.

Regarding “cofilin-2 (CFL2) (from UniProt P45591 1-166)”, the binding entry in assay [1] was “binds”. Regarding “human AGO2, doxycycline-induced in Ago1,2,3,4 knockout mESCs (from UniProt Q9UKV8 1-859)”, the binding result in assay [2] was “binds”.

As to “microtubule-associated protein MAP1B (from UniProt P14873 1-2464)”, the binding entry in assay [1] is listed as “binds”.

B1: kinetochore protein ZWINT (protein, UniProt Q9CQU5 1-252)
chain: MADAEKNAVAEKNNAVATKEVLAEAAAILEPVGLQEEAELPAKIMEEFMRNSRKKDKLLCSQLQVVNFLQTFLAQEDTEQSPDALASEDASRQKATETKEQWKDMKATYMDHVDVIKCALSEALPQVKEAHRKYTELQKAFEQLEAKKRVLEEKLQLAQKQWVLQQKRLQNLTKISAEVKRRRKRALEKLDGSHQELETLKQQAGQEQEKLQRNQSYLQLLCSLQNKLVISEGKAEDKDVKGRALTAKSKSP
Consider B1, for which, in assay [1], the binding entry is on record as “binds”.

B2: LIN28a (protein, UniProt Q8K3Y3 1-209)
chain: MGSVSNQQFAGGCAKAAEKAPEEAPPDAARAADEPQLLHGAGICKWFNVRMGFGFLSMTARAGVALDPPVDVFVHQSKLHMEGFRSLKEGEAVEFTFKKSAKGLESIRVTGPGGVFCIGSERRPKGKNMQKRRSKGDRCYNCGGLDHHAKECKLPPQPKKCHFCQSINHMVASCPLKAQQGPSSQGKPAYFREEEEEIHSPALLPEAQN
Regarding B2, the binding result in assay [3] was “binds”.

B3: centrosomal protein CEP55 (protein, UniProt Q8BT07 1-462)
chain: MSSRSPKDLIKSKWGSRPSSSKSDTALEKFKGEIAAFKTSLDEITSGKGKMAEKGRSRLLEKIQVLEAEREKNVYYLLEKDKEIQRLKDHLRSRYSSSSLFEQLEEKTKECEKKQQLLESLSKETDVLKNQLSATTKRLSELESKASTLHLSQSMPANCFNSSMNSIHEKEMQLKDALEKNQQWLVYDQQREAYVKGLLAKIFELEKRTETAAASLTQQMKKIESEGYLQVEKQKYDHLLENAKKDLEVERQAVTQLRLELDEFRRKYEEARKEVEDLNQLLSSQRKADIQHLEEDKQKTERIQKLREESSIFKGKLEEERKRSEELLSQVRILYDSLLKHQEEQARVALLEQQMQACTLDFENEKLDRQNMQHQLYVILKELRKAKSQITQLESLKQLHGFTITEQPFPLQREPESRVKATSPKSPSAALNDSLVECPKCSVQYPATEHRDLLVHVEYCMK
Take B3: the binding result in assay [1] is on record as “binds”.
